Data on 2 molecules can be found in article PMC4774922.

Amino acid sequences for entries named in this document (tags omitted). A change or cut given only in a name is not applied to a line headed by its entry.
UniProt Q9HAU5: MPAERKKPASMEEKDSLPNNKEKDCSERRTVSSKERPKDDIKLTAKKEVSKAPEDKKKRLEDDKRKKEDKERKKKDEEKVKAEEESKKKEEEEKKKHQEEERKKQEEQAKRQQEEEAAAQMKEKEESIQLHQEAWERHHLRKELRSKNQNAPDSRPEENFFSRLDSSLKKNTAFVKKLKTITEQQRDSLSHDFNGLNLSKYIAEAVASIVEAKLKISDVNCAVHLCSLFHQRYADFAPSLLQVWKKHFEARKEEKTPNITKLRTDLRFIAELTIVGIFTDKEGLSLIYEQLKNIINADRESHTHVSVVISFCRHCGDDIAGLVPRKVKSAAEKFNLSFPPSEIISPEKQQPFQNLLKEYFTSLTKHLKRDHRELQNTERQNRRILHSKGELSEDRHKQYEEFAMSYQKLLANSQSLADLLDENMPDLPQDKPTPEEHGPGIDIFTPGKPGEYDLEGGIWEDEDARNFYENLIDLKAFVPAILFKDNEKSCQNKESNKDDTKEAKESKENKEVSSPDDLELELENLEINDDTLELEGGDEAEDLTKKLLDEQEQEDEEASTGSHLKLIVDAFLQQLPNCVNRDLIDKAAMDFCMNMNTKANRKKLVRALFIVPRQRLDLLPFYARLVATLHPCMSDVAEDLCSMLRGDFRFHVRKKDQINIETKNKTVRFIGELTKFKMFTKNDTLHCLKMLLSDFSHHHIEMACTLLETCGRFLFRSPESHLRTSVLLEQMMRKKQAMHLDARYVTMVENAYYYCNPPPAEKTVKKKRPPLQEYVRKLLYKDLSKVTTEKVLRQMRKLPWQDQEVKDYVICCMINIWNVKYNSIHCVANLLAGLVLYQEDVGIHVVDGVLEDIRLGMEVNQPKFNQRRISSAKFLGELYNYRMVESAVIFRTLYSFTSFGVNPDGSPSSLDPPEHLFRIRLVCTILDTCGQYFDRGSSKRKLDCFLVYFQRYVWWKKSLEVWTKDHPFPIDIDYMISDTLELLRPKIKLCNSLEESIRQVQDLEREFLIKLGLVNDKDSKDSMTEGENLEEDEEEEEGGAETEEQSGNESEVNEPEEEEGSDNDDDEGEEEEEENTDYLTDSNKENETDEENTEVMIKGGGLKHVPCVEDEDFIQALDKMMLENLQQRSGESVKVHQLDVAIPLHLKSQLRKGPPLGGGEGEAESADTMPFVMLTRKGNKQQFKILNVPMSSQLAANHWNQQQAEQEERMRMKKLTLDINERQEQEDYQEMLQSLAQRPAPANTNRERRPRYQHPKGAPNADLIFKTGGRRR

Assay [1] deals with T1, HA-BirA(R118G)-tagged SMG5, RNAi-resistant (UniProt Q9UPR3).
T1 sequence: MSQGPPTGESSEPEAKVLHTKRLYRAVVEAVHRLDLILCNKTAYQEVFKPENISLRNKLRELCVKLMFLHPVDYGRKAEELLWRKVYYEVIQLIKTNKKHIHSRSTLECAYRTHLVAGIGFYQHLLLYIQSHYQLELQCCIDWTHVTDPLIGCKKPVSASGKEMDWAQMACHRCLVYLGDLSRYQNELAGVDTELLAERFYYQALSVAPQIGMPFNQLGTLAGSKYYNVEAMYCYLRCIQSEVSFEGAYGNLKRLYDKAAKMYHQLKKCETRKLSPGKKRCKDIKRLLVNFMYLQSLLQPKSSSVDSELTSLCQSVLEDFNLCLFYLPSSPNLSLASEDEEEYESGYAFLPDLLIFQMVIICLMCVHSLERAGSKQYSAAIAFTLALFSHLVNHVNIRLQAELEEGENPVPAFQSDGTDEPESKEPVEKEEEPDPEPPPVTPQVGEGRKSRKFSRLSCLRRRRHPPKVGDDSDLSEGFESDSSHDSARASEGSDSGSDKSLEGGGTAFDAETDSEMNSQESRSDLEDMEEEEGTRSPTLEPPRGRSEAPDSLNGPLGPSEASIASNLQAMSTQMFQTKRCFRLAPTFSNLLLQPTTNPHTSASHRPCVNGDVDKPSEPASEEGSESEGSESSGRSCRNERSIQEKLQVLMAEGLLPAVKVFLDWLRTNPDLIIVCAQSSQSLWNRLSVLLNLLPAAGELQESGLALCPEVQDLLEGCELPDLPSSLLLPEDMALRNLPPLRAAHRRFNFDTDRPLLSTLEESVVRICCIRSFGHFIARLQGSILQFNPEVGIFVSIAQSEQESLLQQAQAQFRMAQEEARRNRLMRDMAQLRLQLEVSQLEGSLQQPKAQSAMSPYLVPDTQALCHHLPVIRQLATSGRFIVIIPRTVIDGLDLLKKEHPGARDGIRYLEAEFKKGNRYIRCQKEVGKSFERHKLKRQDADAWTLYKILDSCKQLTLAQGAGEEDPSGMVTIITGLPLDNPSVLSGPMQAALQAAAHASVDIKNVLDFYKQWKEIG
The assay is described as follows: proximity labelling; BioID: HB*-bait transiently expressed in 293T cells, 50 μM biotin for 16 hours; streptavidin capture; LC-MS/MS; kept: at least two exclusive unique peptides and more than two times the normalized spectrum count of the free HB* control.

Assay [2] has as its target T2, HA-BirA(R118G)-tagged UPF1, RNAi-resistant (UniProt Q92900).
T2 sequence: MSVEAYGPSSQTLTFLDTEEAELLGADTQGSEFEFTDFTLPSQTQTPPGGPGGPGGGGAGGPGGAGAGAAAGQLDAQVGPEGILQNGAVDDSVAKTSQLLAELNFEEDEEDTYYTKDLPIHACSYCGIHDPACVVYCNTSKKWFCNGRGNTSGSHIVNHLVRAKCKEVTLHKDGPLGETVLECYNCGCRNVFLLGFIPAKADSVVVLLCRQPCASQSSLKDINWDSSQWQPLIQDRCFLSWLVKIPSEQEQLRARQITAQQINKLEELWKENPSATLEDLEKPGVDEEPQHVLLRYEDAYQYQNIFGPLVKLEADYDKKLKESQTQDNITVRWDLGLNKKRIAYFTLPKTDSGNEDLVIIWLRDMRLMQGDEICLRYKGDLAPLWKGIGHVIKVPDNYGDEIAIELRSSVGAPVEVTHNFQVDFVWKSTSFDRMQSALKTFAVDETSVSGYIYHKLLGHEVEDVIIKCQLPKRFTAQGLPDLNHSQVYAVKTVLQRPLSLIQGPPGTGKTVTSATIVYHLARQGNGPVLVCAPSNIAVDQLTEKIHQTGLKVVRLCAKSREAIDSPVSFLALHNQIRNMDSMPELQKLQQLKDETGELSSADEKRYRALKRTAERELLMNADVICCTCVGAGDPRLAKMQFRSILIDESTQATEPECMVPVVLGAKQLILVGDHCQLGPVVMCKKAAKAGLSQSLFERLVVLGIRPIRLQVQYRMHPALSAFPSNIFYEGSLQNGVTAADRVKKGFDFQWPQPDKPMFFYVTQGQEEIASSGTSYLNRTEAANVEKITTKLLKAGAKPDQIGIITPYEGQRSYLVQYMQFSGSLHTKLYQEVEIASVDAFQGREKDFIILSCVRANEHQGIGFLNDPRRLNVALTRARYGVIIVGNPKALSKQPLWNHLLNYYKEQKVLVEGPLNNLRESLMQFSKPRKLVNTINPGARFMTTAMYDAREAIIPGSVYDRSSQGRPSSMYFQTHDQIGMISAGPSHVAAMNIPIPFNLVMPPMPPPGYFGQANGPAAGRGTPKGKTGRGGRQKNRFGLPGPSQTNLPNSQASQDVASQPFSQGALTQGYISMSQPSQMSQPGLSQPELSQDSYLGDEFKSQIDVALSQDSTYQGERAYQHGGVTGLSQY
The assay is described as above.

For assay [3], the target named is HA-BirA(R118G)-tagged UPF2, RNAi-resistant (UniProt Q9HAU5). The description is as above.
The target in assay [4] is T1, HA-BirA(R118G)-tagged SMG5, RNAi-resistant. The assay is described as follows: proximity labelling; BioID: HB*-bait transiently expressed in 293T cells at near endogenous levels, 50 μM biotin for 16 hours; biotinylated proteins captured on magnetic streptavidin beads; western blot.
Assay [5] has as its target T2, HA-BirA(R118G)-tagged UPF1, RNAi-resistant. Described as above.

These are yes or no findings as the source states them, for the method shown. Binding seen in cells or lysates may run through a third protein. Here binding means that the protein was enriched with, or labelled near, the bait; the list need not be complete. For some assays here: A no says only that the protein was not detected with the bait. For some assays here: Where a sequence is shown, tags or fusion partners need not be part of it.

B1: EDC4 (protein, UniProt Q6P2E9 1-1401)
chain: MASCASIDIEDATQHLRDILKLDRPAGGPSAESPRPSSAYNGDLNGLLVPDPLCSGDSTSANKTGLRTMPPINLQEKQVICLSGDDSSTCIGILAKEVEIVASSDSSISSKARGSNKVKIQPVAKYDWEQKYYYGNLIAVSNSFLAYAIRAANNGSAMVRVISVSTSERTLLKGFTGSVADLAFAHLNSPQLACLDEAGNLFVWRLALVNGKIQEEILVHIRQPEGTPLNHFRRIIWCPFIPEESEDCCEESSPTVALLHEDRAEVWDLDMLRSSHSTWPVDVSQIKQGFIVVKGHSTCLSEGALSPDGTVLATASHDGYVKFWQIYIEGQDEPRCLHEWKPHDGRPLSCLLFCDNHKKQDPDVPFWRFLITGADQNRELKMWCTVSWTCLQTIRFSPDIFSSVSVPPSLKVCLDLSAEYLILSDVQRKVLYVMELLQNQEEGHACFSSISEFLLTHPVLSFGIQVVSRCRLRHTEVLPAEEENDSLGADGTHGAGAMESAAGVLIKLFCVHTKALQDVQIRFQPQLNPDVVAPLPTHTAHEDFTFGESRPELGSEGLGSAAHGSQPDLRRIVELPAPADFLSLSSETKPKLMTPDAFMTPSASLQQITASPSSSSSGSSSSSSSSSSSLTAVSAMSSTSAVDPSLTRPPEELTLSPKLQLDGSLTMSSSGSLQASPRGLLPGLLPAPADKLTPKGPGQVPTATSALSLELQEVEPLGLPQASPSRTRSPDVISSASTALSQDIPEIASEALSRGFGSSAPEGLEPDSMASAASALHLLSPRPRPGPELGPQLGLDGGPGDGDRHNTPSLLEAALTQEASTPDSQVWPTAPDITRETCSTLAESPRNGLQEKHKSLAFHRPPYHLLQQRDSQDASAEQSDHDDEVASLASASGGFGTKVPAPRLPAKDWKTKGSPRTSPKLKRKSKKDDGDAAMGSRLTEHQVAEPPEDWPALIWQQQRELAELRHSQEELLQRLCTQLEGLQSTVTGHVERALETRHEQEQRRLERALAEGQQRGGQLQEQLTQQLSQALSSAVAGRLERSIRDEIKKTVPPCVSRSLEPMAGQLSNSVATKLTAVEGSMKENISKLLKSKNLTDAIARAAADTLQGPMQAAYREAFQSVVLPAFEKSCQAMFQQINDSFRLGTQEYLQQLESHMKSRKAREQEAREPVLAQLRGLVSTLQSATEQMAATVAGSVRAEVQHQLHVAVGSLQESILAQVQRIVKGEVSVALKEQQAAVTSSIMQAMRSAAGTPVPSAHLDCQAQQAHILQLLQQGHLNQAFQQALTAADLNLVLYVCETVDPAQVFGQPPCPLSQPVLLSLIQQLASDLGTRTDLKLSYLEEAVMHLDHSDPITRDHMGSVMAQVRQKLFQFLQAEPHNSLGKAARRLSLMLHGLVTPSLP
As for B1, the figures for the binding entry in assay [1], in assay [2] and in assay [3] were “binds”, “no binding” and “no binding”, respectively.

B2: SMG7 (protein, UniProt Q92540 1-1137)
chain: MSLQSAQYLRQAEVLKADMTDSKLGPAEVWTSRQALQDLYQKMLVTDLEYALDKKVEQDLWNHAFKNQITTLQGQAKNRANPNRSEVQANLSLFLEAASGFYTQLLQELCTVFNVDLPCRVKSSQLGIISNKQTHTSAIVKPQSSSCSYICQHCLVHLGDIARYRNQTSQAESYYRHAAQLVPSNGQPYNQLAILASSKGDHLTTIFYYCRSIAVKFPFPAASTNLQKALSKALESRDEVKTKWGVSDFIKAFIKFHGHVYLSKSLEKLSPLREKLEEQFKRLLFQKAFNSQQLVHVTVINLFQLHHLRDFSNETEQHTYSQDEQLCWTQLLALFMSFLGILCKCPLQNESQEESYNAYPLPAVKVSMDWLRLRPRVFQEAVVDERQYIWPWLISLLNSFHPHEEDLSSISATPLPEEFELQGFLALRPSFRNLDFSKGHQGITGDKEGQQRRIRQQRLISIGKWIADNQPRLIQCENEVGKLLFITEIPELILEDPSEAKENLILQETSVIESLAADGSPGLKSVLSTSRNLSNNCDTGEKPVVTFKENIKTREVNRDQGRSFPPKEVRRDYSKGITVTKNDGKKDNNKRKTETKKCTLEKLQETGKQNVAVQVKSQTELRKTPVSEARKTPVTQTPTQASNSQFIPIHHPGAFPPLPSRPGFPPPTYVIPPPVAFSMGSGYTFPAGVSVPGTFLQPTAHSPAGNQVQAGKQSHIPYSQQRPSGPGPMNQGPQQSQPPSQQPLTSLPAQPTAQSTSQLQVQALTQQQQSPTKAVPALGKSPPHHSGFQQYQQADASKQLWNPPQVQGPLGKIMPVKQPYYLQTQDPIKLFEPSLQPPVMQQQPLEKKMKPFPMEPYNHNPSEVKVPEFYWDSSYSMADNRSVMAQQANIDRRGKRSPGVFRPEQDPVPRMPFEKSLLEKPSELMSHSSSFLSLTGFSLNQERYPNNSMFNEVYGKNLTSSSKAELSPSMAPQETSLYSLFEGTPWSPSLPASSDHSTPASQSPHSSNPSSLPSSPPTHNHNSVPFSNFGPIGTPDNRDRRTADRWKTDKPAMGGFGIDYLSATSSSESSWHQASTPSGTWTGHGPSMEDSSAVLMESLKSIWSSSMMHPGPSALEQLLMQQKQKQQRGQGTMNPPH
As for B2, the binding entry was “binds” in assay [4] and “binds weakly” in assay [5].
